Reference: paper PMC4725248, “Yeast mitochondrial HMG proteins”
For at least one entry, the source does not settle the construct or the ends of the probe. No signal at the amounts used counts as a negative. The comparison behind a weaker result is the experiment's own reference, which may not be listed here.

Test system: YlMhb1p (YlMhb1noMP) (Yarrowia lipolytica)
Assay: EMSA
Details: EMSA: 20 mM Tris/HCl pH 7.5, 1 mM EDTA, 50 mM NaCl, 100 ug/ml BSA, 3 nM DNA, 10 min 30 C, gel 0.5x TBE 4 C, recombinant protein, protein details: GST removed with PreScission protease (pGEX-6P-2), label: 32P

## GGAGCAGGTATTGGT (double strand) [15 bp atp9 dsDNA]
5' end of S6
  binding result: no binding

## GGAGCAGGTATTGGTATTGCTATCG (double strand) [25 bp atp9 dsDNA]
Very weak, 5' end of S8
  binding result: binds more weakly
